Source: the supplement of paper PMC7877785
± gives the uncertainty stated by the source. Many of these values have a large error.

Experiment: self-splicing fitness, log relative to wild type (ln ratio); higher = more splicing; Tetrahymena group I intron in knt gene, E. coli kanamycin selection, DiMSum; sequences stand for … in CUCUCU…GGAGGGAAAAGUUAUCAGGCAUGCACCUGGUAGCUAGUCUUUAAACCAAUAGAUUGCAUCGGUUUAAAAGGCAAGACCGUCAAAUUGCGGGAAAGGGGUCAACAGCCGUUCAGUACCAAGUCUCAGGGGAAACUUUGAGAUGGCCUUGCAAAGGGUAUGGUAAUAAGCUGACGGACAUGGUCCUAACCACGCAGCCAAGUCCUAAGUCAACAGAUCUUCUGUUGAUAUGGAUGCAGUUCACAGACUAAAUGUCGGUCGGGGAAGAUGUAUUCUUCUCAUAAGAUAUAGUCGGACCUCUCCUUAAUGGGAGCUAGCGGAUGAAGUGAUGCAACACUGGAGCCGCUGGGAACUAAUUUGUAUGCGAAAGUAUAUUGAUUAGUUUUGGAGUACUCGUGGUCG
In short: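 Colonies from six replicate transformations of E. coli BL21(DE3) were pooled and amplicon-sequenced on an Illumina HiSeq 2500. The library placed an intron with all eight P1ex-region nucleotides randomised inside the knt kanamycin-resistance gene on pET-22b(+), and cells grew overnight at 37°C or 30°C on LB agar with or without 25 μg/mL kanamycin (plus 100 μg/mL carbenicillin, 50 μM IPTG, 0.2% rhamnose). Fitness is the DiMSum error-weighted combination of wild-type-normalised replicate fold changes, kanamycin versus none.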

Sequence | self-splicing fitness (ln) (30 °C) | self-splicing fitness (ln) (37 °C)
UACUAGCAAUAUUACGGCCG | 0.508 ± 0.14 | 0.00712 ± 0.17
AACCAGCAAUAUUACGUCCU | 0.026 ± 0.043 | -0.134 ± 0.053
CGGGAGCAAUAUUACGGUGC | – | -2.2 ± 0.64
UAUGAGCAAUAUUACGGAGG | -3.2 ± 0.17 | -2.53 ± 0.29
GGCAAGCAAUAUUACGCGCC | -3.95 ± 0.74 | –
UGGGAGCAAUAUUACGCCCU | -4.36 ± 1 | -2.05 ± 0.51
UGUUAGCAAUAUUACGAAAU | -3.21 ± 0.55 | –
AGUGAGCAAUAUUACGCAAC | -3.96 ± 0.76 | -1.59 ± 0.62
UGAAAGCAAUAUUACGGGUC | -4.12 ± 1 | –
CUAGAGCAAUAUUACGUCGU | – | -2.19 ± 0.57
CAUGAGCAAUAUUACGCUGC | -3.48 ± 1.1 | -3.91 ± 1
CACGAGCAAUAUUACGUCAA | -2.34 ± 0.17 | -2.13 ± 0.23
UUGAAGCAAUAUUACGCCAC | -2.1 ± 0.68 | -1.5 ± 0.52
UCGCAGCAAUAUUACGCCGC | -3.27 ± 1.1 | –
UCUAAGCAAUAUUACGUUCC | -3.03 ± 1.1 | -1.6 ± 0.54
GCUGAGCAAUAUUACGCCAA | -4.32 ± 1 | –
CUUCAGCAAUAUUACGCUCU | – | -2.99 ± 0.74
GAUGAGCAAUAUUACGACAA | – | -3.03 ± 0.74
UCUUAGCAAUAUUACGGAGA | -3.56 ± 0.6 | –
ACACAGCAAUAUUACGCACC | -0.476 ± 0.09 | -0.151 ± 0.11
GAUGAGCAAUAUUACGCCAU | – | -3.16 ± 0.6
AUGGAGCAAUAUUACGAGUC | – | -1.83 ± 1.1
UUAAAGCAAUAUUACGAGAC | -2.11 ± 0.5 | -1.39 ± 0.71
GCUUAGCAAUAUUACGCUGG | -2.47 ± 1.1 | –

Sequence | self-splicing fitness (ln) (30 °C) | self-splicing fitness (ln) (37 °C)
GUAGAGCAAUAUUACGAAUU | -2.35 ± 0.21 | -2.01 ± 0.35
UCGAAGCAAUAUUACGAGGC | -4.07 ± 0.73 | –
UACGAGCAAUAUUACGGAGG | -2.06 ± 0.5 | -2.27 ± 0.55
CUAUAGCAAUAUUACGUGGG | -3.25 ± 0.19 | -2.16 ± 0.15
GGUUAGCAAUAUUACGAUCC | – | -0.924 ± 0.66
UCUUAGCAAUAUUACGAAUC | – | -2.48 ± 0.54
UUGAAGCAAUAUUACGGUGA | -0.275 ± 0.08 | -0.469 ± 0.09
UUUUAGCAAUAUUACGGGUU | -4.73 ± 0.73 | –
UCCAAGCAAUAUUACGUCAC | -3.72 ± 0.39 | -3.28 ± 0.43
CGGAAGCAAUAUUACGUACA | -0.615 ± 0.13 | -0.219 ± 0.15
GAGGAGCAAUAUUACGUUUC | – | -1.98 ± 1.1
UAAGAGCAAUAUUACGAAAU | -3.88 ± 0.53 | -1.61 ± 0.32
UCUAAGCAAUAUUACGUGCC | – | -2.98 ± 1.1
CUCGAGCAAUAUUACGUAAA | – | -2.2 ± 0.78
GCACAGCAAUAUUACGCACG | -2.06 ± 0.11 | -0.889 ± 0.1
GAAAAGCAAUAUUACGAGGC | -2.56 ± 0.5 | -2.19 ± 0.56
UUCGAGCAAUAUUACGCCGG | – | -2.18 ± 0.64
UGAUAGCAAUAUUACGAGGG | -4.89 ± 0.59 | –
UUGAAGCAAUAUUACGCAUC | – | -2.63 ± 0.62
CUUUAGCAAUAUUACGGCGC | – | -2.76 ± 0.62
CUGGAGCAAUAUUACGGCCG | – | -1.38 ± 0.56
GCAGAGCAAUAUUACGACUG | – | -1.37 ± 0.57
AGCGAGCAAUAUUACGGAUG | -3.91 ± 0.75 | -3.13 ± 0.74
GUCGAGCAAUAUUACGCUAA | -4.06 ± 0.72 | –

Quoted at random: 6 records from the list
Sequence | self-splicing fitness (ln) (30 °C) | self-splicing fitness (ln) (37 °C)
UAAGAGCAAUAUUACGAAAU | -3.88 ± 0.53 | -1.61 ± 0.32
UUGAAGCAAUAUUACGGUGA | -0.275 ± 0.08 | -0.469 ± 0.09
UCCAAGCAAUAUUACGUCAC | -3.72 ± 0.39 | -3.28 ± 0.43
GAAAAGCAAUAUUACGAGGC | -2.56 ± 0.5 | -2.19 ± 0.56
GAGGAGCAAUAUUACGUUUC | – | -1.98 ± 1.1
UCGAAGCAAUAUUACGAGGC | -4.07 ± 0.73 | –

Following part.

Sequence | self-splicing fitness (ln) (30 °C) | self-splicing fitness (ln) (37 °C)
AAAGAGCAAUAUUACGGACG | -2.59 ± 0.58 | -1.65 ± 0.53
GCUGAGCAAUAUUACGACGA | 1.47 ± 1 | –
GUAGAGCAAUAUUACGCCAU | – | -2.08 ± 1.1
CGUUAGCAAUAUUACGGCCC | – | -1.49 ± 0.66
CUCUAGCAAUAUUACGAGCC | -3.09 ± 0.54 | -4.16 ± 0.59
CAGGAGCAAUAUUACGUCCC | – | -1.33 ± 1.2
AUCAAGCAAUAUUACGACCG | -1.33 ± 0.15 | -0.381 ± 0.18
UCGUAGCAAUAUUACGAGGG | -4.15 ± 0.73 | -1.62 ± 0.57
UGAGAGCAAUAUUACGAAUC | -3.87 ± 0.74 | -2.67 ± 1.1
CUUCAGCAAUAUUACGCGAA | -4.06 ± 0.72 | -2.96 ± 0.61
UUCAAGCAAUAUUACGCACC | -1.32 ± 1.4 | –
AGAGAGCAAUAUUACGAUGC | – | -1.29 ± 0.51
GAGGAGCAAUAUUACGGAGC | -3.31 ± 1 | –
CAGUAGCAAUAUUACGUCGA | -3.45 ± 0.25 | -1.49 ± 0.17
CGAAAGCAAUAUUACGAUUC | -4.39 ± 0.59 | –
CCGCAGCAAUAUUACGCUGA | – | -4.47 ± 1
UGUGAGCAAUAUUACGCAGU | -5.62 ± 1 | –
CCUGAGCAAUAUUACGUCUU | -4.31 ± 0.51 | –
AUUGAGCAAUAUUACGAAGC | -5.27 ± 1 | -1.44 ± 0.69
GUUGAGCAAUAUUACGGACC | – | -1.09 ± 0.6
CAGAAGCAAUAUUACGCGAC | -3.9 ± 1 | –
GGGAAGCAAUAUUACGUCCC | -1.32 ± 1.4 | 0.127 ± 0.88
UCAUAGCAAUAUUACGUCCC | – | -1.47 ± 1.2
UGUUAGCAAUAUUACGAAAC | – | -0.0544 ± 0.78

Sequence | self-splicing fitness (ln) (30 °C) | self-splicing fitness (ln) (37 °C)
GAAAAGCAAUAUUACGGCCG | -0.796 ± 0.087 | -0.537 ± 0.12
GUAUAGCAAUAUUACGACUG | -2.88 ± 0.33 | -2.23 ± 0.33
GGGCAGCAAUAUUACGCAUA | -1 ± 0.092 | 0.38 ± 0.13
GGAAAGCAAUAUUACGGAAC | – | -1.44 ± 0.56
GUUUAGCAAUAUUACGAACU | -4.26 ± 1 | -2.69 ± 0.44
CUUUAGCAAUAUUACGUUAA | – | -2.86 ± 0.53
GGCAAGCAAUAUUACGGUUU | -0.376 ± 0.052 | 0.232 ± 0.069
CUCUAGCAAUAUUACGCGCA | -4.4 ± 1 | -3.04 ± 0.61
UUGGAGCAAUAUUACGAUCC | -3.16 ± 1 | –
AUCGAGCAAUAUUACGGAUG | -4.14 ± 0.59 | –
AUCUAGCAAUAUUACGCCAC | -1.7 ± 0.53 | -1.93 ± 0.51
AGGGAGCAAUAUUACGUCUG | -4.84 ± 0.59 | –
CUCGAGCAAUAUUACGCGCA | – | -2.16 ± 1.1
UAUAAGCAAUAUUACGCCCC | -1.17 ± 0.93 | -0.688 ± 0.61
CCGAAGCAAUAUUACGGAUA | -4.55 ± 0.59 | –
GUUGAGCAAUAUUACGAUAC | -2.2 ± 0.57 | –
UCAUAGCAAUAUUACGGCCC | -2.36 ± 1.2 | –
CCCGAGCAAUAUUACGACCC | -1.52 ± 1.2 | –
ACCAAGCAAUAUUACGCGUA | -1.11 ± 0.075 | -0.487 ± 0.075
GUUUAGCAAUAUUACGCACA | -0.867 ± 0.12 | -0.0205 ± 0.14
UUCCAGCAAUAUUACGUUAG | -2.57 ± 0.17 | -0.904 ± 0.16
CGAUAGCAAUAUUACGUUUA | -3.31 ± 0.52 | -2.57 ± 0.21
